# Laboratory results from patent US20050176633A1, “Use of egfr transactivation inhibitors in human cancer” (priority 2002, published 2005).
# At least one compound was matched to its structure with a doubt left.
# Tested on: EGFR transactivation
# Test: Cell lysis, immunoprecipitation and immunoblotting after GPCR ligand stimulation
# Type: cell-based
# Conditions: human cancer cell lines
# [1] = after stimulation with GPCR ligands
compound,measurement,setting,value
CNC(=O)[C@H](Cc1ccccc1)NC(=O)[C@H](CC(C)C)[C@H](CSc1cccs1)C(=O)NO [batimastat],EGFR phosphorylation,[1],downregulated
same,phosphorylation of the mitogen activated protein kinase (downstream signaling event),[1],downregulated
same,recruitment of adapter proteins (downstream signaling event),[1],downregulated
same,basal phosphorylation of the EGFR,basal (no GPCR ligand stimulation),sensitive
